According to article PMC7819943, “Rice protein-binding microarrays: a tool to detect cis-acting elements near promoter regions in rice”:
Some of the results follow.

The sequences below were run against T1, OsSMF1 (Oryza sativa, UniProt Q6ZLB0 1-436) (assay: protein-binding microarray (RPBM); PBS, 2% BSA, 51.3 ng/ul salmon testes DNA, 50 uM zinc acetate, 200 nM TF, 25 C, 1 h; high values mean tight binding). Details: protein: recombinant; tags: N-terminal polyhistidine and DsRed monomer fusion (pET32a); chain copies: 2; label: CyDye5-dUTP incorporated in the synthesized complementary strand; 3' TTTTT single-stranded linker to array surface; dsDNA, one strand shown.
T1 sequence: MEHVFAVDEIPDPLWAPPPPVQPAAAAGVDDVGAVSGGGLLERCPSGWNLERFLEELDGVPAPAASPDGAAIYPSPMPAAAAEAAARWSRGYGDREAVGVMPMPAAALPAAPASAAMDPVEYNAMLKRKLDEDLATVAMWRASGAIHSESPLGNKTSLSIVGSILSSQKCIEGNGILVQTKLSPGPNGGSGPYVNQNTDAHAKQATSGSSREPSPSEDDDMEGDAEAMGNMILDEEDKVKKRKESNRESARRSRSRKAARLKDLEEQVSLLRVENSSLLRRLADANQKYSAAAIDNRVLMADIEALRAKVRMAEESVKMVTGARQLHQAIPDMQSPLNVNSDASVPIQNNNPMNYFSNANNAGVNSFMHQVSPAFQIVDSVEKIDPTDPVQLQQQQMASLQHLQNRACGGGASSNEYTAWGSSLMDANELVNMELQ
Method in brief: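 Binding signal is reported as fluorescence intensity per feature (arbitrary units) from an Axon 4000B scanner. Incubation used 200 nM of each Ni–NTA-purified, N-terminally polyhistidine- and DsRed-fused transcription factor from E. coli BL21-CodonPlus on a double-stranded custom Agilent array for 1 h at 25 °C, with 50 µM zinc acetate in the buffer, followed by washing.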

Q: “TACTGAACTGAACTAAGCTCAGTCAATCCCATGCATGTTGCGGAGTCACCTAGTGCAG” was tested. Which binding signal did it give?
A: 3730 fluorescence intensity (a.u.)

Q: How did the binding signal turn out when “CGCGCCACCGCGCGAGCTCTCGCCCTCACGTGGCGATCGACGGAGTCACCTAGTGCAG” was run?
A: 4710 fluorescence intensity (a.u.)

Q: “CTGAGAAGAACAACGAAGACACCATTCAGAGCAAAGCTTCCGGAGTCACCTAGTGCAG” was tested. Which binding signal did it give?
A: 7460 fluorescence intensity (a.u.)

Q: For “CATTGTACATACTACGCGGTAAGTATCCATGTGTGGGGTTCGGAGTCACCTAGTGCAG”, which binding signal is on record?
A: 4180 fluorescence intensity (a.u.)

Q: With “GTGTTTTGAATAATGTCTCTGCTGTCCAAAACTACTCCCTCGGAGTCACCTAGTGCAG” as the sequence, how does the binding signal read?
A: 3280 fluorescence intensity (a.u.)

Q: With “TCCTGGGTCGCCCTCCTCCGTGACGCACCTTGACTGCCCCCGGAGTCACCTAGTGCAG” as the sequence, how does the binding signal read?
A: 5190 fluorescence intensity (a.u.)

Q: Which binding signal does the source give for “ATGTTTGTGAAGTGACATATCACATATTGATCTATCATACCGGAGTCACCTAGTGCAG” here?
A: 5200 fluorescence intensity (a.u.)

Q: For “ACCACCACATCACATTATCCCCGTGCCGTCCAATCCAACGCGGAGTCACCTAGTGCAG”, which binding signal is on record?
A: 3850 fluorescence intensity (a.u.)

Q: How did the binding signal turn out when “AGCGAATCTAGGGGCTGCCACGTGGCTCGCACGCGCACGTCGGAGTCACCTAGTGCAG” was run?
A: 28000 fluorescence intensity (a.u.)

Q: For “AAAACCAATCTACCACCAACTGACAGATGATTGCCTTTCGCGGAGTCACCTAGTGCAG”, which binding signal is on record?
A: 18100 fluorescence intensity (a.u.)

Q: With “ATTTAGATGACATGCAAACAGATGAAAATCCACATTCCTCCGGAGTCACCTAGTGCAG” as the sequence, how does the binding signal read?
A: 3350 fluorescence intensity (a.u.)

Q: How did the binding signal turn out when “TCATGCTCTCTGAGGAGAATGACACGACGAGAAAGAAGAGCGGAGTCACCTAGTGCAG” was run?
A: 4110 fluorescence intensity (a.u.)

Q: Which binding signal does the source give for “GTGCCGCTGAGCTTTGCTGATTTGGCTTTTCCTTGTTGCGCGGAGTCACCTAGTGCAG” here?
A: 5870 fluorescence intensity (a.u.)

Q: For “GCAAGTGCCCCGGCGCGCCGCTCGGCGTCATCCTGGTGCTCGGAGTCACCTAGTGCAG”, which binding signal is on record?
A: 3840 fluorescence intensity (a.u.)

Q: Which binding signal does the source give for “ACCATGCAGGGAGGGACAACACGTGTCATTGGGAGACACGCGGAGTCACCTAGTGCAG” here?
A: 3230 fluorescence intensity (a.u.)

Q: For “TGCCACGTGACGTCCCTTCCTTCGGCGGCTTTGCCCGCTTCGGAGTCACCTAGTGCAG”, which binding signal is on record?
A: 8220 fluorescence intensity (a.u.)

Q: How did the binding signal turn out when “TGAATACGCGATTCTTCCTGTGAAAGCTGACGCGTTTGGTCGGAGTCACCTAGTGCAG” was run?
A: 3480 fluorescence intensity (a.u.)

Q: “GAGTCGCGCCTGGGCCGGCAGCTCTAACAACCCATCCCGGCGGAGTCACCTAGTGCAG” was tested. Which binding signal did it give?
A: 17300 fluorescence intensity (a.u.)

Q: Which binding signal does the source give for “GAGACCGTTCTGAATTTCTGAGACTGATACATATTTGATGCGGAGTCACCTAGTGCAG” here?
A: 40300 fluorescence intensity (a.u.)

Q: For “CGTCCCTTTCAGTCGTCGCCGCTGACACTACCTTGCTCCCCGGAGTCACCTAGTGCAG”, which binding signal is on record?
A: 4830 fluorescence intensity (a.u.)

Q: For “CGCAATTCCGCCGCCGCCGCAGCCACGTTGGCCGGCGGCCCGGAGTCACCTAGTGCAG”, which binding signal is on record?
A: 5020 fluorescence intensity (a.u.)

Q: With “TGTGAAGTGAAAACTATTATTTCTGACTCATAGATGTCATCGGAGTCACCTAGTGCAG” as the sequence, how does the binding signal read?
A: 3800 fluorescence intensity (a.u.)

Q: “GCTGAACAGGGGAGGGGCGGCGATCTCTATCTGGCGAGCACGGAGTCACCTAGTGCAG” was tested. Which binding signal did it give?
A: 3880 fluorescence intensity (a.u.)

Q: Which binding signal does the source give for “ACAAACCTATCAATGAACAGTACATGTCGATCCCAATGGGCGGAGTCACCTAGTGCAG” here?
A: 4550 fluorescence intensity (a.u.)

Q: For “TTGTGGTACGATACTAGTACTACTAGTAGACTAGTAGCAGCGGAGTCACCTAGTGCAG”, which binding signal is on record?
A: 3260 fluorescence intensity (a.u.)

Q: For “CCTGGTCTTTGATTGGTCCACGTGGCGCAGCGAGAATTCACGGAGTCACCTAGTGCAG”, which binding signal is on record?
A: 10800 fluorescence intensity (a.u.)

Q: With “GCCTGCCGCCCTCCCATCGCCGCTCCGCCCGCCGACTGTCCGGAGTCACCTAGTGCAG” as the sequence, how does the binding signal read?
A: 8860 fluorescence intensity (a.u.)

Q: For “CAATACGTCATAATGTTTCATATTAATCTATGTTGTCAAGCGGAGTCACCTAGTGCAG”, which binding signal is on record?
A: 4010 fluorescence intensity (a.u.)

Q: For “TTTCTCAACTGCATAATCCTGTCATTCATGTTCTCGTGCACGGAGTCACCTAGTGCAG”, which binding signal is on record?
A: 4410 fluorescence intensity (a.u.)

Q: With “CCCACGGCGGGCTCTGACGTGGATGTAGTCGGTCTTCTGGCGGAGTCACCTAGTGCAG” as the sequence, how does the binding signal read?
A: 9860 fluorescence intensity (a.u.)

Q: With “ACTTAATAAAATCAAACGTCACAGTTCCGTACTTTTCAGTCGGAGTCACCTAGTGCAG” as the sequence, how does the binding signal read?
A: 35900 fluorescence intensity (a.u.)

Q: How did the binding signal turn out when “GATAATTTAAATCGCATCAATTAAGATACCATGTACGCATCGGAGTCACCTAGTGCAG” was run?
A: 32700 fluorescence intensity (a.u.)

Q: Which binding signal does the source give for “GAGGGGAGCAGGCTGTACATGCTGGATTACCACGACATCTCGGAGTCACCTAGTGCAG” here?
A: 3510 fluorescence intensity (a.u.)

Q: Which binding signal does the source give for “TATGTAATTAGTTTTGTAAGTAGTCTATATTTAATACTCTCGGAGTCACCTAGTGCAG” here?
A: 22000 fluorescence intensity (a.u.)

Q: Which binding signal does the source give for “CAGTGACTCCTCTCCTACGTAGGCGCCACGTCAGCAAAACCGGAGTCACCTAGTGCAG” here?
A: 20900 fluorescence intensity (a.u.)

Q: With “GCTGACATCAGCATGATATCAGCGCCCGATTTCCCCGGCCCGGAGTCACCTAGTGCAG” as the sequence, how does the binding signal read?
A: 11400 fluorescence intensity (a.u.)

Q: “TTAACAAACACAAGAAAGACAAATACGAGTCCTTCGATAACGGAGTCACCTAGTGCAG” was tested. Which binding signal did it give?
A: 6520 fluorescence intensity (a.u.)

Q: “CGTCCACACACTCATGAATCATCGCTCACTCAAACAGCCTCGGAGTCACCTAGTGCAG” was tested. Which binding signal did it give?
A: 4180 fluorescence intensity (a.u.)

Q: “TCTTCCTCCTCTTCTGCGTCGTCGACTTCGTCTCCGGCGGCGGAGTCACCTAGTGCAG” was tested. Which binding signal did it give?
A: 3620 fluorescence intensity (a.u.)

Q: “TGGGGAAGGCTCCGGCGAGCCTCCGCGCGCGCCGCGCTGGCGGAGTCACCTAGTGCAG” was tested. Which binding signal did it give?
A: 3210 fluorescence intensity (a.u.)

Q: How did the binding signal turn out when “TTCTAGAAAACATCGTGTCATGCTAGTTTTGAGCAGAAGTCGGAGTCACCTAGTGCAG” was run?
A: 3230 fluorescence intensity (a.u.)

Q: How did the binding signal turn out when “TCCTCCTTTATACTAGGAAAGAACAGCCGACGTGGCGATCCGGAGTCACCTAGTGCAG” was run?
A: 17000 fluorescence intensity (a.u.)

Q: With “AGCCGCACTCAAAACCCACGTACACCCCATGCCTTGCCTCCGGAGTCACCTAGTGCAG” as the sequence, how does the binding signal read?
A: 4590 fluorescence intensity (a.u.)

Q: “GAGTAGCTTTGCTGATGATGCCATATACTAATATCTCCTTCGGAGTCACCTAGTGCAG” was tested. Which binding signal did it give?
A: 3300 fluorescence intensity (a.u.)

Q: With “TAGGTATCATCTGACACCTCACAATTATCACCAAATTAGGCGGAGTCACCTAGTGCAG” as the sequence, how does the binding signal read?
A: 3500 fluorescence intensity (a.u.)

Q: Which binding signal does the source give for “GACATTCAACTAGTACTGACAAAGAGGGTACACCACGTAGCGGAGTCACCTAGTGCAG” here?
A: 4010 fluorescence intensity (a.u.)

Q: With “ATACTACTAAACGAATGAAAATGGGTCATTTTGCCGCGCTCGGAGTCACCTAGTGCAG” as the sequence, how does the binding signal read?
A: 3860 fluorescence intensity (a.u.)

Q: With “CATTAGGTATTTCGACAGCATAGCAACTATACACAATATCCGGAGTCACCTAGTGCAG” as the sequence, how does the binding signal read?
A: 3250 fluorescence intensity (a.u.)

Q: With “AGCTAATTGCTACACTTTGACCTGTCATCAATCTTTGGATCGGAGTCACCTAGTGCAG” as the sequence, how does the binding signal read?
A: 5490 fluorescence intensity (a.u.)

Q: With “CACATCGTTGCCAATGTTGCCACGTACCAAGGTCATATGGCGGAGTCACCTAGTGCAG” as the sequence, how does the binding signal read?
A: 9400 fluorescence intensity (a.u.)

Q: “TTAACCTTTTCTTATTAAGGATCAGAAAGATATGGATAATCGGAGTCACCTAGTGCAG” was tested. Which binding signal did it give?
A: 3500 fluorescence intensity (a.u.)

Q: “CCGTCGACCACGTTGATGCCGACGGTGGCTGACACATGACCGGAGTCACCTAGTGCAG” was tested. Which binding signal did it give?
A: 4960 fluorescence intensity (a.u.)

Q: Which binding signal does the source give for “GTGGGGCCCACAAGCAGAGACACGCACGCCAAGCATTAGTCGGAGTCACCTAGTGCAG” here?
A: 4000 fluorescence intensity (a.u.)

Q: How did the binding signal turn out when “CTCTCGTCTTAACTTAATTCCTGCCAGAATGTGACGTGCACGGAGTCACCTAGTGCAG” was run?
A: 5240 fluorescence intensity (a.u.)
